This is an account of results in publication PMC3798409.

By UniProt entry, the sequences of proteins in these tests, tags left out.
UniProt B2RWS6: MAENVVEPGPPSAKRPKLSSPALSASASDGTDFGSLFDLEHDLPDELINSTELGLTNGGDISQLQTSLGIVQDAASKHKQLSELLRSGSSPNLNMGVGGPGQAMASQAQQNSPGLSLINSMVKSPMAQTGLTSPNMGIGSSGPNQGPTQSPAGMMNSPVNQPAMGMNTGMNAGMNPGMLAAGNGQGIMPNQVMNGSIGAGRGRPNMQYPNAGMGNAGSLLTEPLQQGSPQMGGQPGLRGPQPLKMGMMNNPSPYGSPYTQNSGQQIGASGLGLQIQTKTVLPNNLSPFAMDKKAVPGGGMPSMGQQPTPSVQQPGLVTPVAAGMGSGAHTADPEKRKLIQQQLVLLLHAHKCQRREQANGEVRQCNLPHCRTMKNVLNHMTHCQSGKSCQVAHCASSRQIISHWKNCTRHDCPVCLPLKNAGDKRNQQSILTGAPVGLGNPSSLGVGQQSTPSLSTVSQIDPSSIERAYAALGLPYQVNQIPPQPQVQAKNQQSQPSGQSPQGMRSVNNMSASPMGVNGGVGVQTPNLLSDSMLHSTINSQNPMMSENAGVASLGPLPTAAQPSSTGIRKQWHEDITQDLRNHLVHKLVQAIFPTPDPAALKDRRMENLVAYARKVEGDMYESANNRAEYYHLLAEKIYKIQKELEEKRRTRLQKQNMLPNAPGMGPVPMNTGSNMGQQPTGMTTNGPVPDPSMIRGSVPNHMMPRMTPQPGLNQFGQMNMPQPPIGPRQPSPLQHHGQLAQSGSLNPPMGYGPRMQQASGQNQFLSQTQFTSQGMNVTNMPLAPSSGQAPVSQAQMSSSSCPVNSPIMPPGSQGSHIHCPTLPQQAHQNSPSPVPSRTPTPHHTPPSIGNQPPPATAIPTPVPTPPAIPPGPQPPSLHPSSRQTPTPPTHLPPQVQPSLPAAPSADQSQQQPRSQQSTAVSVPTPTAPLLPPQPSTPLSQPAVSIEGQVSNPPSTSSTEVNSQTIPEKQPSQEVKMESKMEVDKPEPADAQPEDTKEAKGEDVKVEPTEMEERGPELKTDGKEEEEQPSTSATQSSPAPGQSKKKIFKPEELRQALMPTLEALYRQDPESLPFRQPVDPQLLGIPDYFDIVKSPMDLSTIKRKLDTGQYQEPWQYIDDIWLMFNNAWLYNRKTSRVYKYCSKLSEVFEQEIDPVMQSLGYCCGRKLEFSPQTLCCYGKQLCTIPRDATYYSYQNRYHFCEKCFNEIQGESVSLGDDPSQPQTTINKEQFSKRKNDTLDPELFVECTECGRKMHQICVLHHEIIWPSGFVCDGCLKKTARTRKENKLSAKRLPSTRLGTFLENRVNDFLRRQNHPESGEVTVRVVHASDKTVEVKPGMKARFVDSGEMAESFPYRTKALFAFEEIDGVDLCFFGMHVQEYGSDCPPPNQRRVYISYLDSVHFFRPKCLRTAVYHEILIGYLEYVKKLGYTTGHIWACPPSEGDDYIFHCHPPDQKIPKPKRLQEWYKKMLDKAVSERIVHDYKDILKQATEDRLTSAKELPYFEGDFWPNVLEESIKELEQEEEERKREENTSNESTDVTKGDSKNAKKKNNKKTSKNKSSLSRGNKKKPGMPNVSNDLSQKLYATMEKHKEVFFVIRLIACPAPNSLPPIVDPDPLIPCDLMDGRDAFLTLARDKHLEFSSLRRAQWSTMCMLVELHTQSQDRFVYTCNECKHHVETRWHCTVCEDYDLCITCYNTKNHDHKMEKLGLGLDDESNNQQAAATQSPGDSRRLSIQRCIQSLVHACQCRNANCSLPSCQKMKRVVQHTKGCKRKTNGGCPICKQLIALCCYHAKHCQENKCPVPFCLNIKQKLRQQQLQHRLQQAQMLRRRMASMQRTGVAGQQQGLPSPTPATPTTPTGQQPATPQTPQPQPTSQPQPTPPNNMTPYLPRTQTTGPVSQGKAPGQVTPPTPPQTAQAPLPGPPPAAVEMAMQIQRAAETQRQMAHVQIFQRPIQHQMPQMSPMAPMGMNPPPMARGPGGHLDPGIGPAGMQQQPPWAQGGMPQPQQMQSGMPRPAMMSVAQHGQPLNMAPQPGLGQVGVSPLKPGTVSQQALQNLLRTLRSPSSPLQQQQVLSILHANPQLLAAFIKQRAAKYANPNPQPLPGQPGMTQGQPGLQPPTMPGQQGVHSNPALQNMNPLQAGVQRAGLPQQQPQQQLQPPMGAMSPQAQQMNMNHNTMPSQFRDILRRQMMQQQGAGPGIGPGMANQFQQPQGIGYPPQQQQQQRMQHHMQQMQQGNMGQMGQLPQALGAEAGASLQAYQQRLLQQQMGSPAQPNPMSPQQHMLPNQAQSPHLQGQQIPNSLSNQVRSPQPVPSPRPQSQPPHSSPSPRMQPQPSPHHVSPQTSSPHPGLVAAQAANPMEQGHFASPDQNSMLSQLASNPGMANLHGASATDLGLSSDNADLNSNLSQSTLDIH

This assay concerns the target p300 (mouse (endogenous in embryonic heart)) (UniProt B2RWS6). The assay can be described thus: co-IP; nuclear proteins from E14.5 mouse embryonic hearts; precleared with normal IgG; precipitated with anti-p300 antibody and protein A/G-agarose at 4°C; Western blot with Islet-1 antibody. On the technique in general: A western blot detects proteins with antibodies after separation by electrophoresis.

These are yes or no findings as the source states them, for the method shown. Binding seen in cells or lysates may run through a third protein. Some binding calls cover weakened binding; strength is not graded here.

B1: Islet-1 (protein, UniProt P61372 1-349)
chain: MGDMGDPPKKKRLISLCVGCGNQIHDQYILRVSPDLEWHAACLKCAECNQYLDESCTCFVRDGKTYCKRDYIRLYGIKCAKCSIGFSKNDFVMRARSKVYHIECFRCVACSRQLIPGDEFALREDGLFCRADHDVVERASLGAGDPLSPLHPARPLQMAAEPISARQPALRPHVHKQPEKTTRVRTVLNEKQLHTLRTCYAANPRPDALMKEQLVEMTGLSPRVIRVWFQNKRCKDKKRSIMMKQLQQQQPNDKTNIQGMTGTPMVAASPERHDGGLQANPVEVQSYQPPWKVLSDFALQSDIDQPAFQQLVNFSEGGPGSNSTGSEVASMSSQLPDTPNSMVASPIEA
Consider B1, for which the binding entry is “binds”.
